The source of these data is paper PMC12813190.

Amino acid sequences for entries named in this document (tags omitted).
UniProt Q9HC98: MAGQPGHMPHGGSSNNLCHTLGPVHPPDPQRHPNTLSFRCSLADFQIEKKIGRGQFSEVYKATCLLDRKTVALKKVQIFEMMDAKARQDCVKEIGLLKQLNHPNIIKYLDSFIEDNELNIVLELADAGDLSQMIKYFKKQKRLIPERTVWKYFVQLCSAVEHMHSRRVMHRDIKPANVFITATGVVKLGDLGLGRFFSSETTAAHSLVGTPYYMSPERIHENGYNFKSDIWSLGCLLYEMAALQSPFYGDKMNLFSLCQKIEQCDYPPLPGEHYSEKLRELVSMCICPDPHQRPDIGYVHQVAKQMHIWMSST
UniProt P67809: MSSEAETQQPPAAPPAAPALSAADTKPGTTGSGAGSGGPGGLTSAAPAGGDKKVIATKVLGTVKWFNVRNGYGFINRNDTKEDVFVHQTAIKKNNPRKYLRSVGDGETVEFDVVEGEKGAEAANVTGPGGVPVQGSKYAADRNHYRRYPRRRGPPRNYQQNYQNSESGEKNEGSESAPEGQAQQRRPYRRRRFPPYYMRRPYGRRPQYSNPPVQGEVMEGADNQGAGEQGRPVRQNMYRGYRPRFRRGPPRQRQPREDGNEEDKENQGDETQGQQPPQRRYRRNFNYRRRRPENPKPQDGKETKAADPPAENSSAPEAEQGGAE

The target of this test is NEK6 in HEC-1A cells (UniProt Q9HC98). Kind of test: co-IP; IP-western blot in HEC-1A cells; NEK6 precipitated, YBX1 detected by blot. On the technique in general: A western blot detects proteins with antibodies after separation by electrophoresis.

No constants are given. Whether binding was seen depends on the method and setting. Binding seen in cells or lysates may run through a third protein. Some entries that bind do so weakly or less than the wild type.

In the case of “Y-box-binding protein 1 (YBX1), endogenous in HEC-1A cells (from UniProt P67809 1-324)”, the binding result was “binds”.
